The supplement of paper PMC8728848
Some of the results follow.

Columns and labels:
Assay in all cases: glycan array binding signal (z-score within array); higher = stronger binding
Conditions in all cases: glycan notation: IUPAC condensed, linker removed
[1] = target: Man(a1-2)Man(a1-3)[Man(a1-2)Man(a1-6)]Man(a1-6)[Man(a1-2)Man(a1-2)Man(a1-3)]Man(b1-4)GlcNAc(b1-4)GlcNAc
Procedure, shortened: (§1)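 The binding signal is a Z-score computed within each array and averaged over linkers. Arrays of the same protein sequence at different concentrations or buffers were also averaged together. Data originate from 3228 arrays in the Consortium for Functional Glycomics database, kept only where the protein sequence was available.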

[2] = target: Man(a1-2)Man(a1-3)[Man(a1-6)]Man(a1-6)[Man(a1-2)Man(a1-3)]Man(b1-4)GlcNAc(b1-4)GlcNAc
Procedure, shortened: as §1

[3] = target: Man(a1-2)Man(a1-6)[Man(a1-3)]Man(a1-6)[Man(a1-2)Man(a1-2)Man(a1-3)]Man
Procedure, shortened: as §1

[4] = target: Man(a1-2)Man(a1-6)[Man(a1-3)]Man(a1-6)[Man(a1-2)Man(a1-2)Man(a1-3)]Man(b1-4)GlcNAc(b1-4)GlcNAc
Procedure, shortened: as §1

Man(a1-3)[Man(a1-6)]Man = target: Man(a1-3)[Man(a1-6)]Man
Procedure, shortened: as §1

[5] = target: Man(a1-3)[Man(a1-6)]Man(a1-6)[Man(a1-2)Man(a1-3)]Man(b1-4)GlcNAc(b1-4)GlcNAc
Procedure, shortened: as §1

[6] = target: Man(a1-3)[Man(a1-6)]Man(a1-6)[Man(a1-3)]Man
Procedure, shortened: as §1

[7] = target: Man(a1-3)[Man(a1-6)]Man(a1-6)[Man(a1-3)]Man(b1-4)GlcNAc(b1-4)GlcNAc
Procedure, shortened: as §1

[8] = target: Man(a1-3)[Man(a1-6)]Man(b1-4)GlcNAc(b1-4)GlcNAc
Procedure, shortened: as §1

[9] = target: Man(a1-3)[Man(a1-6)]Man(b1-4)GlcNAc(b1-4)[Fuc(a1-6)]GlcNAc
Procedure, shortened: as §1

Man(a1-6)Man = target: Man(a1-6)Man
Procedure, shortened: as §1

Man(b1-4)GlcNAc = target: Man(b1-4)GlcNAc
Procedure, shortened: as §1

MurNAc(b1-4)GlcNAc = target: MurNAc(b1-4)GlcNAc
Procedure, shortened: as §1

Neu5Ac(a2-3)Gal = target: Neu5Ac(a2-3)Gal
Procedure, shortened: as §1

[10] = target: Neu5Ac(a2-3)Gal(b1-3)GalNAc
Procedure, shortened: as §1

[11] = target: Neu5Ac(a2-3)Gal(b1-3)GalNAc(b1-3)Gal(a1-4)Gal(b1-4)Glc
Procedure, shortened: as §1

[12] = target: Neu5Ac(a2-3)Gal(b1-3)GalNAc(b1-4)[Neu5Ac(a2-3)]Gal(b1-4)Glc
Procedure, shortened: as §1

[13] = target: Neu5Ac(a2-3)Gal(b1-3)GalNAc(b1-4)[Neu5Ac(a2-8)Neu5Ac(a2-3)]Gal(b1-4)Glc
Procedure, shortened: as §1

[14] = target: Neu5Ac(a2-3)Gal(b1-3)GalNAc6S
Procedure, shortened: as §1

[15] = target: Neu5Ac(a2-3)Gal(b1-3)GlcNAc
Procedure, shortened: as §1

[16] = target: Neu5Ac(a2-3)Gal(b1-3)GlcNAc(b1-2)Man
Procedure, shortened: as §1

[17] = target: Neu5Ac(a2-3)Gal(b1-3)GlcNAc(b1-2)Man(a1-3)[GlcNAc(b1-4)][Neu5Ac(a2-3)Gal(b1-3)GlcNAc(b1-2)Man(a1-6)]Man(b1-4)GlcNAc(b1-4)GlcNAc
Procedure, shortened: as §1

[18] = target: Neu5Ac(a2-3)Gal(b1-3)GlcNAc(b1-2)Man(a1-3)[Neu5Ac(a2-3)Gal(b1-3)GlcNAc(b1-2)Man(a1-6)]Man(b1-4)GlcNAc(b1-4)GlcNAc
Procedure, shortened: as §1

[19] = target: Neu5Ac(a2-3)Gal(b1-3)GlcNAc(b1-3)Gal(b1-3)GlcNAc
Procedure, shortened: as §1

[20] = target: Neu5Ac(a2-3)Gal(b1-3)GlcNAc(b1-3)Gal(b1-4)GlcNAc
Procedure, shortened: as §1

[21] = target: Neu5Ac(a2-3)Gal(b1-3)GlcNAc(b1-3)GalNAc
Procedure, shortened: as §1

[22] = target: Neu5Ac(a2-3)Gal(b1-3)GlcNAc(b1-4)Gal(b1-4)Glc
Procedure, shortened: as §1

[23] = target: Neu5Ac(a2-3)Gal(b1-3)GlcNAc(b1-6)GalNAc
Procedure, shortened: as §1

[24] = target: Neu5Ac(a2-3)Gal(b1-3)GlcNAc6S
Procedure, shortened: as §1

[25] = target: Neu5Ac(a2-3)Gal(b1-3)[Fuc(a1-4)]GlcNAc
Procedure, shortened: as §1

[26] = target: Neu5Ac(a2-3)Gal(b1-3)[Fuc(a1-4)]GlcNAc(b1-3)Gal(b1-3)[Fuc(a1-4)]GlcNAc
Procedure, shortened: as §1

[27] = target: Neu5Ac(a2-3)Gal(b1-3)[Fuc(a1-4)]GlcNAc(b1-3)Gal(b1-4)[Fuc(a1-3)]GlcNAc
Procedure, shortened: as §1

[28] = target: Neu5Ac(a2-3)Gal(b1-3)[GlcNAc(b1-6)]GalNAc
Procedure, shortened: as §1

[29] = target: Neu5Ac(a2-3)Gal(b1-3)[Neu5Ac(a2-6)]GalNAc
Procedure, shortened: as §1

[30] = target: Neu5Ac(a2-3)Gal(b1-3)[Neu5Ac(a2-6)]GlcNAc(b1-3)[Fuc(a1-3)[Gal(b1-4)]GlcNAc(b1-6)]Gal(b1-4)Glc
Procedure, shortened: as §1

[31] = target: Neu5Ac(a2-3)Gal(b1-3)]Neu5Ac(a2-3)Gal(b1-4)]GlcNAc
Procedure, shortened: as §1

Neu5Ac(a2-3)Gal(b1-4)Glc = target: Neu5Ac(a2-3)Gal(b1-4)Glc
Procedure, shortened: as §1

B1: Epf (Streptococcus pyogenes) (protein)
chain: GDHGPEFNGVMVVKAAEAEELPDDLMNFKGTWEVSADGSSGRFFSKGATDSYVFHLIPAKDVKKPGWREHNEVKDSYIKIDKQSIAARYKTSTTAPYSVAFKVNTKSLIKDHDYKITFEQGQIASGITVDYRIGSAFNKTTDDSFKISDESKYASNVKIEGEEQGFKQREQGDKTISFRTLKEGPMSLVLLSKVEKKPQGDLDVEFKNLKIIDVTNPSQLDKGVAYVGNKNVQLTLKSDDGRTNFEGDEISLFNSRGELLQTVTVTKDQQNPISITLSEDQAKSLKNKEKLKVSIKQKQSKKTSKDFFFEVGIDPKVEAKQKEKLLELDKVKKQIEDSINGDAWLPEKPVDLQGDHGLSAWSHPQFEK
[1]
  glycan array binding signal (z-score): -0.363
[2]
  glycan array binding signal (z-score): -1.41
[3]
  glycan array binding signal (z-score): 1.21
[4]
  glycan array binding signal (z-score): -0.19
Man(a1-3)[Man(a1-6)]Man
  glycan array binding signal (z-score): -0.795
[5]
  glycan array binding signal (z-score): -0.626
[6]
  glycan array binding signal (z-score): -0.569
[7]
  glycan array binding signal (z-score): -1.06
[8]
  glycan array binding signal (z-score): 0.659
[9]
  glycan array binding signal (z-score): -0.773
Man(a1-6)Man
  glycan array binding signal (z-score): -0.914
Man(b1-4)GlcNAc
  glycan array binding signal (z-score): -0.471
MurNAc(b1-4)GlcNAc
  glycan array binding signal (z-score): 1.14
Neu5Ac(a2-3)Gal
  glycan array binding signal (z-score): -0.169
[10]
  glycan array binding signal (z-score): -1.24
[11]
  glycan array binding signal (z-score): 0.129
[12]
  glycan array binding signal (z-score): 0.303
[13]
  glycan array binding signal (z-score): -0.085
[14]
  glycan array binding signal (z-score): 1.65
[15]
  glycan array binding signal (z-score): -0.926
[16]
  glycan array binding signal (z-score): -2.07
[17]
  glycan array binding signal (z-score): -1.33
[18]
  glycan array binding signal (z-score): -0.716
[19]
  glycan array binding signal (z-score): -0.504
[20]
  glycan array binding signal (z-score): -1.25
[21]
  glycan array binding signal (z-score): -0.671
[22]
  glycan array binding signal (z-score): -1.15
[23]
  glycan array binding signal (z-score): 1.66
[24]
  glycan array binding signal (z-score): 0.36
[25]
  glycan array binding signal (z-score): -1.01
[26]
  glycan array binding signal (z-score): 0.998
[27]
  glycan array binding signal (z-score): 0.666
[28]
  glycan array binding signal (z-score): 0.505
[29]
  glycan array binding signal (z-score): -0.975
[30]
  glycan array binding signal (z-score): -0.194
[31]
  glycan array binding signal (z-score): 0.647
Neu5Ac(a2-3)Gal(b1-4)Glc
  glycan array binding signal (z-score): 0.62
